For part of these data: Where a sequence shows no end group, the ends are not given. Where no end group is shown, it is not given here. [ ]: non-standard residue; d: D form. Cit = NC(=O)NCCC[C@H](N)C(=O)O
Columns and labels:
[1] = tested on: RA sera; assay: IgG response to cyclic citrullinated FBG peptides in RA and control sera; type: binding, human; details: positivity defined using the 95th percentile of the normal group, n=20
Text: (A) Peptides with sequences corresponding to the amino acid sequence of FBG were designed, with the addition of cysteine residues at the amino and carboxy termini and the exchange of arginine for citrulline residues at positions identified by LC-MS/MS. (B) IgG response to citrullinated FBG peptides and arginine containing control peptides in patients with rheumatoid arthritis (RA; n=20) and healthy controls (n=20). The 95th percentile of the control sera was used to determine positivity (dashed line). Mann-Whitney U test was used to calculate p values for differences between groups (n.s.=no significant difference, *=p<0.05 and **=p<0.01, ***=p<0.001, […]).
With reference to FIG. 31, the antibody response in 20 RA and 20 control sera to 6 cyclic FBG peptides, encompassing citrulline residues was evaluated.

[2] = peptide made by a vendor; details: whole synthesis
[3] = tested on: serum from RA patients; assay: Western blot of citrullinated tenascin-C probed with serum from RA patients or healthy controls; type: binding, human
Protocol: SDS PAGE of Citrullinated Proteins 33.33 ul of citrullination reaction (cit-TNC alone or cit-TNC combined with cit-FBG) was loaded into NuPAGE® Novex 4-12% Bis-tris gel using a 1.0 mm 2D single lane well.
After electrophoresis proteins were transferred to nitrocellulose and the membrane blocked and then cut into strips (up to 8 strips ˜0.7 cm wide). Strips were incubated with serum from RA patients or normal healthy individuals diluted 1:100 in 5% milk TBS-tween. Strips were incubated in 15 ml falcon tubes on rollers 1 h room temperature, then washed 3 ×5 min, 1×15 min in tubes with TBS-Tween. Strips were then incubated with secondary mouse anti-human Ig 1:5000 1 h in room temperature, then washed 3×5 min, 1×15 min in the dish with TBS-tween. Strips were finally incubated with ECL reagents and exposed to film.

Substance | RA patients positive for the epitope [1] | healthy controls exhibiting positivity [1] | outcome [2] | RA patients reacting by Western blot ([3]; 50 RA patients, serum 1:100) | controls reacting by Western blot ([3]; 50 normal healthy controls)
CEMKL-Cit-PSNF-Cit-NLEGRRKRC [CIT209/214] | ~20% | none |  |  | 
CEMKLRPSNFRNLEG-Cit-Cit-KRC [CIT219/220] | ~30% | none |  |  | 
CVFLRRKNG[Cit]ENFYQNWC (cysteine pairing not given here) [CIT55] | about 35% | none |  |  | 
RSFSTFDKDTDSAITNCALSYKGAFWYRN |  |  | The facility was unable to synthesize peptide 7 |  | 
citrullinated tenascin-C: purified human recombinant tenascin-C citrullinated in vitro with PAD |  |  |  | 20% | none
